No constants are given. Whether binding was seen depends on the method and setting. In cells and extracts the contact can be indirect. Here binding means that the protein was enriched with, or labelled near, the bait; the list need not be complete. Tags and fused reporters may be left off the sequences shown.
T1: ELT-2::TY1::EGFP::3xFLAG (C. elegans) (UniProt Q10655)
T1 sequence: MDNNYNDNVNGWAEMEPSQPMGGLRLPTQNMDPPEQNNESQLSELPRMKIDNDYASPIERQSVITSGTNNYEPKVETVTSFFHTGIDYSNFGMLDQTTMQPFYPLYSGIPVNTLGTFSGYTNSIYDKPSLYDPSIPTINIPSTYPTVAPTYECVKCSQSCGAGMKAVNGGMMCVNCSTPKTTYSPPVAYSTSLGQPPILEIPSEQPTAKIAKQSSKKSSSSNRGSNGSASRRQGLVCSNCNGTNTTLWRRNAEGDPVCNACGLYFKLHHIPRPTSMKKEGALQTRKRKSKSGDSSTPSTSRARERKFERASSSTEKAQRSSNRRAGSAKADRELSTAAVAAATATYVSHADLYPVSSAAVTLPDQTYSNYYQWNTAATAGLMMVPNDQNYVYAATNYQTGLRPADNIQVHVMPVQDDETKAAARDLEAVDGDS

By UniProt entry, the sequences of proteins in these tests, tags left out. Where a name states a change or a piece, a line headed by the entry shows the natural chain unless it says otherwise. Residues count along the entry.
UniProt Q9XTT9: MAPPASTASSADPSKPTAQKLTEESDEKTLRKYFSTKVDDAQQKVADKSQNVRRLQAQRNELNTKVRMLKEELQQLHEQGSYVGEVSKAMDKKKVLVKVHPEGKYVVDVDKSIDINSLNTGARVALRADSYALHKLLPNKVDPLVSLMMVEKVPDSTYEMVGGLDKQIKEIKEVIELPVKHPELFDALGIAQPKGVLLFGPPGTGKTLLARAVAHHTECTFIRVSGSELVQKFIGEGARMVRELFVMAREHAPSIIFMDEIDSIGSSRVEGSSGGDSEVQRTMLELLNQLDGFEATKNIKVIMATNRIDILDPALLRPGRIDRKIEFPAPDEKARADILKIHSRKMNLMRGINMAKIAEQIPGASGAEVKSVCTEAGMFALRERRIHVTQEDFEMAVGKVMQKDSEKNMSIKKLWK
UniProt P17343: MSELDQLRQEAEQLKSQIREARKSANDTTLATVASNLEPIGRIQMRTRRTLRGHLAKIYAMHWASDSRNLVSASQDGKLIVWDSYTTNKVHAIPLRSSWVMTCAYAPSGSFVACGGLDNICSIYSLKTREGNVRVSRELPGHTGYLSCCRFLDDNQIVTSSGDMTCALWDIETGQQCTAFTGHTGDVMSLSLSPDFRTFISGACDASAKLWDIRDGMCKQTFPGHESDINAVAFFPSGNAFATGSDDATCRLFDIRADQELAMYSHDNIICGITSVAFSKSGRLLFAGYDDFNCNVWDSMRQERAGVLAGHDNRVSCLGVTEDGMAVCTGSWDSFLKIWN
UniProt G5EFC1: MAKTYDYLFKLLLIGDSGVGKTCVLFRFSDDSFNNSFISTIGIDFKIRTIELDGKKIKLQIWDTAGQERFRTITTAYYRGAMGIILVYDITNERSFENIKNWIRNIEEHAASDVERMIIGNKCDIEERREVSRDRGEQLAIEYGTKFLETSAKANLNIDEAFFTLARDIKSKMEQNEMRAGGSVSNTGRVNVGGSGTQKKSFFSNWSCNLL
UniProt G5EDD4: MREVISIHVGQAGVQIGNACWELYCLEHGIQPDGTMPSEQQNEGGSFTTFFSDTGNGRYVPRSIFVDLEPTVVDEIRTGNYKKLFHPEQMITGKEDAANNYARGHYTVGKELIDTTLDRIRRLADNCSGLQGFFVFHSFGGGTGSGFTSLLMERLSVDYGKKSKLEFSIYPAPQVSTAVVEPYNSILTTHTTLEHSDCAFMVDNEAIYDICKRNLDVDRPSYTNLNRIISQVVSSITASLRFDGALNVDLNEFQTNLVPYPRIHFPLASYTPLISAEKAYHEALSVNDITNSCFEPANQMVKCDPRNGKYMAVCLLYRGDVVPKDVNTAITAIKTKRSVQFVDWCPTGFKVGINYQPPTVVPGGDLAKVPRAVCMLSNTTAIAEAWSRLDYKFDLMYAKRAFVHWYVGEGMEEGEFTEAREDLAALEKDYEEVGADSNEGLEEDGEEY
UniProt Q06561, residues 23-3375: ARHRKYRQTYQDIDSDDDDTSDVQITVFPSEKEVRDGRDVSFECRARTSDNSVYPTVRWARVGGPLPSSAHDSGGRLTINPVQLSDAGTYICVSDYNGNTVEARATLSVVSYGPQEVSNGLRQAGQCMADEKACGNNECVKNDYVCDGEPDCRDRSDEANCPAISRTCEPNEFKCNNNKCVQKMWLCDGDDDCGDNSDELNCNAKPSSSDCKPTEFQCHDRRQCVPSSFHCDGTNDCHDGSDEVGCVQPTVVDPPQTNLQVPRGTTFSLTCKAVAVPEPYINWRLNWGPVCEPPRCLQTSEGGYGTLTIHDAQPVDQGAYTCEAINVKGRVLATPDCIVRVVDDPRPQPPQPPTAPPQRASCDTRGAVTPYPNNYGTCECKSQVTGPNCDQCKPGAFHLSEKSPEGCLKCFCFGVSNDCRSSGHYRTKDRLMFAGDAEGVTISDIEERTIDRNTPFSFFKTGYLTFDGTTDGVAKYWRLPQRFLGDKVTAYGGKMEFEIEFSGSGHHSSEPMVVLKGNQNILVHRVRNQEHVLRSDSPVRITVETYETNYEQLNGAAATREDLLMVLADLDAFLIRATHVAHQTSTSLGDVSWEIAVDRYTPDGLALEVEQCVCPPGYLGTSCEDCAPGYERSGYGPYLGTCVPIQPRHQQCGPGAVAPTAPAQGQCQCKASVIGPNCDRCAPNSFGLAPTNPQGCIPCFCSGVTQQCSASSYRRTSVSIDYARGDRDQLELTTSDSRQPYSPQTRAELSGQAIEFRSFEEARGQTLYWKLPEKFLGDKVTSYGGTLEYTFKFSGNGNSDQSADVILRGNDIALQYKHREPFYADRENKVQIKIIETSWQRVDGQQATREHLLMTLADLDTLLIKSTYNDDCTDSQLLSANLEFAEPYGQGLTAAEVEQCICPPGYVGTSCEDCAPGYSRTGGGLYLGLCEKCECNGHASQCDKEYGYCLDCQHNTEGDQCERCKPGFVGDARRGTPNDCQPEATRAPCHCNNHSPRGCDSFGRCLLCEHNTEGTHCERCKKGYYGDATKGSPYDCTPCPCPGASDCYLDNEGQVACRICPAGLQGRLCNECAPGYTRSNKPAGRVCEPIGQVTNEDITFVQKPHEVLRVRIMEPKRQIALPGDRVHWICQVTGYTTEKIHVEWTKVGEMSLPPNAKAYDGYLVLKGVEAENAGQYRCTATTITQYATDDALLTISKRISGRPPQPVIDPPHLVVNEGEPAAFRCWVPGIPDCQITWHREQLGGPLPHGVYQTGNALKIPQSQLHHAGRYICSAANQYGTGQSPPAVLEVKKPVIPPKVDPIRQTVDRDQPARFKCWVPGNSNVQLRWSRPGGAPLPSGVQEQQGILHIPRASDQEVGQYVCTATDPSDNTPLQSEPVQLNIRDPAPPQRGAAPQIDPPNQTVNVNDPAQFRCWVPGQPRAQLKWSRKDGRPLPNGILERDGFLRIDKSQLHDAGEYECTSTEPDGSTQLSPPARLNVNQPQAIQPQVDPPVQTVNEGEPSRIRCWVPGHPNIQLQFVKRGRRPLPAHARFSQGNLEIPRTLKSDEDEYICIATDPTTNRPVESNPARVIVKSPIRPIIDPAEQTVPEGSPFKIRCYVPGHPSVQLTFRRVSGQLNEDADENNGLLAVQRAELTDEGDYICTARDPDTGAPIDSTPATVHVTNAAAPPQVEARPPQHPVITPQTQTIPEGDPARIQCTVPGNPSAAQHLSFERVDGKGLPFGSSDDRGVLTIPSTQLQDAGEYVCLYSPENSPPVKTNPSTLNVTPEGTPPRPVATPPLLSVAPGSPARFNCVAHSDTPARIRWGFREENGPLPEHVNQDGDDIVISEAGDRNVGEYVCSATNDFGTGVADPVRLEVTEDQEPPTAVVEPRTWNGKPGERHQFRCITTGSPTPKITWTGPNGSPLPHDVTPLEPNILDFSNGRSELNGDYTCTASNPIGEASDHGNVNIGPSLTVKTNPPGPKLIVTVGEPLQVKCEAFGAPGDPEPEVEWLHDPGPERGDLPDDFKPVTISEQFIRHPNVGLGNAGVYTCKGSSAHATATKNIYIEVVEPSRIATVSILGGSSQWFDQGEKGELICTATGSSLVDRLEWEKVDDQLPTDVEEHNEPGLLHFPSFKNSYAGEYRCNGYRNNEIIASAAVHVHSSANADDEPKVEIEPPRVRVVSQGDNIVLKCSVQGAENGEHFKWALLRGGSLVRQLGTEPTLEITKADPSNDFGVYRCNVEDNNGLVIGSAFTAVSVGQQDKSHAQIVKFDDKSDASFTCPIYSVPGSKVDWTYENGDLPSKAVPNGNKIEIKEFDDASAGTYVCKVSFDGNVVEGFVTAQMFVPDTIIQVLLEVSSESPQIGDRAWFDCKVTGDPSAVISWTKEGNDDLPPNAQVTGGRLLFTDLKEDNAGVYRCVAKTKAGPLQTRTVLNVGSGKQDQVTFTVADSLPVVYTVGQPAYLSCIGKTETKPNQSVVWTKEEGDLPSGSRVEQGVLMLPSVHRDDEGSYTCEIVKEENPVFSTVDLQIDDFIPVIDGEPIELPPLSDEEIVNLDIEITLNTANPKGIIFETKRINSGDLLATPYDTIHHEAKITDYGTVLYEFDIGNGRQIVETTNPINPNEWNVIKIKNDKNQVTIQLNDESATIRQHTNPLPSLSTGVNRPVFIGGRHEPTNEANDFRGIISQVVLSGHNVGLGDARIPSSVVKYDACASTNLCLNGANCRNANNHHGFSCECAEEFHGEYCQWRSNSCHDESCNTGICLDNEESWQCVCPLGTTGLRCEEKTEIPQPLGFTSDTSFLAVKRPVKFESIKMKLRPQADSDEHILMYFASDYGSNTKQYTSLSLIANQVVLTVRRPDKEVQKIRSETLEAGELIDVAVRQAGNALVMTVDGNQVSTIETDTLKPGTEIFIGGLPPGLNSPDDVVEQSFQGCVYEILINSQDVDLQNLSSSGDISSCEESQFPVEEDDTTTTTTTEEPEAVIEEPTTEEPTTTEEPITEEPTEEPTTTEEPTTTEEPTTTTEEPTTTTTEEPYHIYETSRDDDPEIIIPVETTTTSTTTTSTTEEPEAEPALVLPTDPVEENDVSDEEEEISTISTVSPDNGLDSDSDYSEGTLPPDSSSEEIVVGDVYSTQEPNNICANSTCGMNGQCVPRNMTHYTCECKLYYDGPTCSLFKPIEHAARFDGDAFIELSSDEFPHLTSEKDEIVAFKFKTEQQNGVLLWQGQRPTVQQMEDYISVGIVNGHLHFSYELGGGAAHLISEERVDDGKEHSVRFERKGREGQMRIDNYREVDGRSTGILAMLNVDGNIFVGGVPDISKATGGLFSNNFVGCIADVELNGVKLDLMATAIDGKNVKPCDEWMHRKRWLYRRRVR

B1: eif-3.E (protein, UniProt O61820 1-432)
chain: MSTFDLTQRMAPFLDLHLIIPLLEFIEPRGIYDEKSLTEMHRQLLTKTNMIDSVIETYNGKPIPAAIEAKKKQIIKERDELKSKVDSVVAILEIPEVKEMMDNNRERDGNVRILEHLTQNHNFTVDMVDTLFKYSKFMYECGNYTVASVCLYYYRNLVNQADPNYLNALYGKLASEILLQEWEHARDDLLKLRAYIDANPFDTEWELVTQRAWLMHWALFVYYNYPKGRDEIIEMFLNQQPYLNAIQVLAPHLLRYLAVAVVTSKSRQKNSLKDLVKVIDIERHSYKDPVTDFLTCLYIKYDFDEAQEMLQKCEEVLSNDFFLTAVLGDFRESARLLIFEMFCRIHQCITIEMLARRLNMSQEEAERWIVDLIRTYRIEGAKIDSKLGQVVMGVKSVSIHEQVMENTKRLTLRAQQIALQLEKGRQDKVKAT
B2: hsp-12.2 (protein, UniProt P34328 1-110)
chain: MSAIEVTADAASTWDWPLQHNDGVVKVHNTKEKFEVGLDVQFFTPKEIEVKVSGQELLIHCRHETRSDNHGTVAREINRAYKLPDDVDVSTVKSHLATRGVLTITASKKA

target: T1, ELT-2::TY1::EGFP::3xFLAG (C. elegans); assay: affinity purification with mass spectrometry; GFP-Trap A beads on sonicated lysate of about 2,000 young adult ELT-2::GFP (OP56 x fer-1) animals exposed to P. aeruginosa PA14 for 12 hours at 25°C; 4°C for 4 hours; washed with 50 mM NH4HCO3; LC-MS/MS

binding	Molecule
binds	RPT-6 (from UniProt Q9XTT9 1-416)
binds	gpb-1 (from UniProt P17343 1-340)
binds	rab-8 (from UniProt G5EFC1)
binds	tba-4 (from UniProt G5EDD4)
binds	unc-52 (from UniProt Q06561 23-3375)

target: T1, ELT-2::TY1::EGFP::3xFLAG (C. elegans); assay: as above; remark: another data set of the same source

binding	Molecule
binds	B1
binds	B2
